Measurements: PubChem BioAssay AID248 (DTP/NCI, 2004)
The list shows only some results of the screen, not a fair sample: it is rich in T/C values a quarter to a half above the control, in often repeated tests (any T/C) and in doses without a T/C. Further doses and runs are listed elsewhere. T/C: endpoint of the treated group in % of that of the vehicle group. Some doses have a count of surviving animals in place of a T/C: the source files T/C as zero there, which appears to mark a toxic dose or a test without result, not a measured value. Some doses without a T/C left all or most animals alive at the check, yet need not have been tolerated: the source hardly ever lists a survival T/C far under the control, and the zero likely stands for such cases as well. Counts of survivors are from the toxicity check (mostly the fifth day) where no day follows; animals may have died later. Schedule codes are those of the source, taken here to give the interval after Q, in days (D) or hours (H), and the number of doses after X. Some schedules carry Z or #; the key to these is not given. Some entries hold several experiments; the results are listed from low to high. For survival time, the PubChem record calls one and a half times the control and up active, and a quarter to a half above the control has no call in these data; cut-offs in other NCI protocols can differ. Some T/C values are followed by the survivors on the day toxicity was checked, most often the fifth; where none is given, no animal had died by that day.

System: L1210 leukemia ip in BDF1 mice, survival T/C
Test: NCI In Vivo Anticancer Drug Screen. Data for tumor model L1210 Leukemia (intraperitoneal) in B6D2F1 (BDF1) mice
Details: T/C endpoint: mean survival time, higher T/C = longer survival
[1] = dose: 50.0 mg/kg/injection, schedule: Q01DX001 (ip), vehicle: saline
[2] = dose: 80.0 mg/kg/injection, schedule: Q01DX001 (ip), vehicle: saline
[3] = dose: 100.0 mg/kg/injection, schedule: Q01DX001 (ip), vehicle: saline
[4] = dose: 200.0 mg/kg/injection, schedule: Q01DX001 (ip), vehicle: saline
[5] = dose: 400.0 mg/kg/injection, schedule: Q01DX001 (ip), vehicle: saline
[6] = dose: 400.0 mg/kg/injection, schedule: Q04DX003 (ip), vehicle: saline
[7] = dose: 50.0 mg/kg/injection, schedule: Q04DX003 (ip), vehicle: saline with Tween-80
[8] = dose: 100.0 mg/kg/injection, schedule: Q04DX003 (ip), vehicle: saline with Tween-80
[9] = dose: 100.0 mg/kg/injection, schedule: Q04DX003 (ip), vehicle: saline
[10] = dose: 200.0 mg/kg/injection, schedule: Q04DX003 (ip), vehicle: saline
[11] = dose: 300.0 mg/kg/injection, schedule: Q01DX009 (ip), vehicle: saline with Tween-80
[12] = dose: 200.0 mg/kg/injection, schedule: Q04DX002 (ip), vehicle: saline with Tween-80
[13] = dose: 400.0 mg/kg/injection, schedule: Q04DX003 (ip), vehicle: saline with Tween-80
[14] = dose: 400.0 mg/kg/injection, schedule: Q01DX001 (ip), vehicle: carboxymethylcellulose (CMC)

## COc1cc(O)c2ncccc2c1O
[1]
  survivor count: 2 of 4
[2]
  T/C: 133 % of control [3 of 4 alive]
  survivor count: 0 of 6 and 1 of 6
[3]
  survivor count: 0 of 4
dose: 120.0 mg/kg/injection, schedule: Q01DX001 (ip), vehicle: saline
  survivor count: 0 of 6 and 1 of 6
[4]
  survivor count: 0 of 4
[5]
  survivor count: 0 of 4

## C#CCN1C(=O)C(c2ccccc2)C2(CCN(C)CC2)C1=O (stereo not given)
dose: 400.0 mg/kg/injection, schedule: Q01DX001 (ip), vehicle: saline with Tween-80
  survivor count: 0 of 6

## CCOC(=O)Cc1nnn(C)n1
[6]
  survivor count: 3 of 3

## CC(C)(C)OC(=O)C(=O)C(OC(C)(C)C)C(=O)OC(C)(C)C (stereo not given)
[5]
  survivor count: 3 of 6

## O=C(Nc1cccc(C2=NCCN2)c1)c1cccc2c(C(=O)Nc3cccc(C4=NCCN4)c3)cccc12
dose: 30.0 mg/kg/injection, schedule: Q01DX Z (ip), vehicle: carboxymethylcellulose (CMC)
  survivor count: 0 of 6
dose: 60.0 mg/kg/injection, schedule: Q01DX Z (ip), vehicle: carboxymethylcellulose (CMC)
  survivor count: 0 of 6
dose: 120.0 mg/kg/injection, schedule: Q01DX Z (ip), vehicle: carboxymethylcellulose (CMC)
  survivor count: 0 of 6

## c1cc(Nc2ccncc2)ccn1
[7]
  survivor count: 6 of 6
[8]
  survivor count: 1 of 6

## N=C(N)c1ccc(-n2cc3cc(C(=N)N)ccc3n2)cc1
[9]
  survivor count: 0 of 4
[10]
  survivor count: 0 of 4
[6]
  survivor count: 0 of 4

## CCSc1ncc2cnccn12
dose: 100.0 mg/kg/injection, schedule: Q01DX009 (ip), vehicle: water
  survivor count: 3 of 6
dose: 200.0 mg/kg/injection, schedule: Q04DX003 (ip), vehicle: water
  survivor count: 0 of 6
dose: 400.0 mg/kg/injection, schedule: Q04DX003 (ip), vehicle: water
  survivor count: 0 of 6

## CSc1nn(C)c2cc(C)c3ccccc3[n+]12
[1]
  survivor count: 2 of 4
[2]
  survivor count: 0 of 4
[3]
  survivor count: 0 of 4
[4]
  survivor count: 0 of 4
[5]
  survivor count: 0 of 4

## CCOC(=O)Nc1ccc2c(c1)/C(=N\NC(N)=S)c1ccccc1-2
[11]
  survivor count: 1 of 6
[5]
  survivor count: 3 of 6

## CC1CCC2N(C1)CC1C3(O)CC45OC6(O)C(O)CCC4(C)C6CCC5C3(O)CC(O)C1(O)C2(C)O (stereo not given)
dose: 300.0 mg/kg/injection, schedule: Q01DX001 (ip), vehicle: saline
  survivor count: 0 of 6

## NCC1C2CCC(C2)C1CCCNCCCC1C2CCC(C2)C1CN (stereo not given)
dose: 100.0 mg/kg/injection, schedule: Q04DX002 (ip), vehicle: saline with Tween-80
  survivor count: 0 of 3
[12]
  survivor count: 0 of 3
dose: 400.0 mg/kg/injection, schedule: Q04DX002 (ip), vehicle: saline with Tween-80
  survivor count: 0 of 3

## OC1COC(OCc2ccccc2)C(O)C1O (stereo not given)
[13]
  survivor count: 6 of 6

## CC(=O)OC1C=CC(=O)OC1C1OC1C (stereo not given)
dose: 45.0 mg/kg/injection, schedule: Q01DX Z (ip), vehicle: saline
  survivor count: 2 of 6

## CN(CCc1ccccc1)/N=N/c1[nH]ncc1C(N)=O
dose: 177.0 mg/kg/injection, schedule: Q01DX009 (ip), vehicle: Klucel (hydroxypropylcellulose) (HPC)
  T/C: 143 % of control
dose: 266.0 mg/kg/injection, schedule: Q01DX009 (ip), vehicle: Klucel (hydroxypropylcellulose) (HPC)
  T/C: 148 % of control
dose: 400.0 mg/kg/injection, schedule: Q01DX009 (ip), vehicle: Klucel (hydroxypropylcellulose) (HPC), evaluated on day 20
  T/C: 135 % of control
dose: 400.0 mg/kg/injection, schedule: Q01DX009 (ip), vehicle: Klucel (hydroxypropylcellulose) (HPC), evaluated on day 30
  T/C: 134 % of control

## CCCCCCCCC/C(=N\N=C(N)N)c1ccccc1
dose: 100.0 mg/kg/injection, schedule: Q01DX Z (oral), vehicle: methylcellulose (MC)
  survivor count: 2 of 6
dose: 200.0 mg/kg/injection, schedule: Q01DX Z (oral), vehicle: methylcellulose (MC)
  survivor count: 3 of 6

## O=C1NC(=O)C([N+](=O)[O-])C(=O)N1
[9]
  survivor count: 4 of 6

## CN(C)N=Nc1ccc([N+](=O)[O-])cc1Cl
dose: 200.0 mg/kg/injection, schedule: Q01DX009 (ip), vehicle: saline with Tween-80
  T/C: 138 % of control
[11]
  survivor count: 4 of 6
dose: 400.0 mg/kg/injection, schedule: Q01DX009 (ip), vehicle: saline with Tween-80
  survivor count: 6 of 6

## CCC(CC)OCCN1CCN(CCCN2c3ccccc3Sc3ccc(C(F)(F)F)cc32)CC1
dose: 3.12 mg/kg/injection, schedule: Q01DX009 (ip), vehicle: saline
  survivor count: 6 of 6
dose: 6.25 mg/kg/injection, schedule: Q01DX009 (ip), vehicle: saline
  survivor count: 6 of 6
dose: 12.5 mg/kg/injection, schedule: Q01DX009 (ip), vehicle: saline
  survivor count: 2 of 6
dose: 25.0 mg/kg/injection, schedule: Q04DX003 (ip), vehicle: saline with Tween-80
  survivor count: 3 of 6
[7]
  survivor count: 1 of 6
[8]
  survivor count: 0 of 6

## Cc1cccc(C)c1N1C(=O)C2C(C1=O)C1(Cl)C(Cl)=C(Cl)C2(Cl)C1(Cl)Cl (stereo not given)
dose: 200.0 mg/kg/injection, schedule: Q01DX009 (ip), vehicle: Klucel (hydroxypropylcellulose) (HPC)
  survivor count: 0 of 6
dose: 400.0 mg/kg/injection, schedule: Q04DX003 (ip), vehicle: Klucel (hydroxypropylcellulose) (HPC)
  survivor count: 0 of 6

## N=C(N)c1ccc(-n2nc3ccc(C(=N)N)cc3n2)cc1
[9]
  survivor count: 0 of 4
[10]
  survivor count: 0 of 4
[6]
  survivor count: 0 of 4

## Cc1ccc(Oc2ccc3cc[n+](C)cc3c2)cc1
dose: 50.0 mg/kg/injection, schedule: Q04DX002 (ip), vehicle: DMSO
  survivor count: 1 of 3
dose: 100.0 mg/kg/injection, schedule: Q04DX002 (ip), vehicle: DMSO
  survivor count: 0 of 3 and 1 of 3
dose: 200.0 mg/kg/injection, schedule: Q04DX002 (ip), vehicle: DMSO
  survivor count: 0 of 3
dose: 400.0 mg/kg/injection, schedule: Q04DX002 (ip), vehicle: DMSO
  survivor count: 0 of 3

## Cc1ccc(OCCBr)cc1
dose: 400.0 mg/kg/injection, schedule: Q01DX009 (ip), vehicle: Klucel (hydroxypropylcellulose) (HPC)
  survivor count: 6 of 6

## COc1cc(N(CCCl)CCCl)c(OC)cc1C=Nc1cccc(Br)c1
dose: 60.0 mg/kg/injection, schedule: Q01DX009 (ip), vehicle: carboxymethylcellulose (CMC)
  survivor count: 5 of 6
dose: 89.0 mg/kg/injection, schedule: Q01DX009 (ip), vehicle: carboxymethylcellulose (CMC)
  survivor count: 2 of 6
dose: 133.0 mg/kg/injection, schedule: Q01DX009 (ip), vehicle: carboxymethylcellulose (CMC)
  survivor count: 0 of 6
dose: 177.0 mg/kg/injection, schedule: Q01DX001 (ip), vehicle: carboxymethylcellulose (CMC)
  T/C: 138 % of control [5 of 6 alive]
dose: 200.0 mg/kg/injection, schedule: Q01DX009 (ip), vehicle: carboxymethylcellulose (CMC)
  survivor count: 0 of 6
dose: 300.0 mg/kg/injection, schedule: Q01DX009 (ip), vehicle: carboxymethylcellulose (CMC)
  survivor count: 0 of 6
[14]
  T/C: 129 % of control
  survivor count: 3 of 6
dose: 600.0 mg/kg/injection, schedule: Q01DX001 (ip), vehicle: carboxymethylcellulose (CMC)
  survivor count: 0 of 6

## COC1C=CC23c4cc5c(cc4C(O)OC2CN(C)C3C1)OCO5 (stereo not given)
[4]
  survivor count: 0 of 6
[5]
  survivor count: 0 of 6

## CCCCN(CCC#N)C(N)=O
dose: 200.0 mg/kg/injection, schedule: Q01DX Z (ip), vehicle: methylcellulose (MC)
  survivor count: 5 of 6

## CC[N+](C)(CC)/N=C(\C)c1ccccc1
dose: 200.0 mg/kg/injection, schedule: Q04DX003 (ip), vehicle: saline with Tween-80
  survivor count: 0 of 1
[13]
  survivor count: 0 of 6

## CCOC(CN(Cc1ccccc1)CC(OCC)OCC)OCC
[12]
  survivor count: 3 of 3
